In patent US20080045454A1:
Results are given in words; binding and its absence hold for the method and conditions named. For part of these data: Binding seen in cells or lysates may run through a third protein. Some entries that bind do so weakly or less than the wild type. For part of these data: Tags and fused reporters may be left off the sequences shown.

Protein sequences, listed by entry. Tags and fused reporters are not part of them. Lines headed by an entry give the natural chain unless they say otherwise; changes in a name come on top. Chains listed by the source or under a name are the forms on record and can include a tag or linker. Residues count along the entry.
UniProt Q9C035: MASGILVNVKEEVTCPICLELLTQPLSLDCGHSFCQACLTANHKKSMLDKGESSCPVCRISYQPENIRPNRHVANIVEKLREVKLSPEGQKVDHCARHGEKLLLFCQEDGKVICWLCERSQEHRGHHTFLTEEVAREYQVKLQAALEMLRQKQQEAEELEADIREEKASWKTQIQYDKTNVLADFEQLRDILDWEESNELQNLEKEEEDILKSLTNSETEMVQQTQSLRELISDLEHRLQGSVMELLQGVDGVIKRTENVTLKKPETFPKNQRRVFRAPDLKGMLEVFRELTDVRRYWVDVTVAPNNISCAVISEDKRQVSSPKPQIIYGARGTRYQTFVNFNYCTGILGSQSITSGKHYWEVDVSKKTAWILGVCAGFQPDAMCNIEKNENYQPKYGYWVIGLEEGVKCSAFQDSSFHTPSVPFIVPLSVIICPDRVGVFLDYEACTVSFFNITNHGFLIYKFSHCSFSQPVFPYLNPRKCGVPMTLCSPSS
huTRIMStop fused to lexA: residues 1-299 of Q9C035
GST-TRIM5αhu (glutathione S-transferase fusion with full-length human TRIM5α): residues 2-493 of Q9C035

What was measured:
[1] = molecular target: huTRIMStop fused to lexA (human) (UniProt Q9C035); assay: yeast two-hybrid, β-galactosidase reporter
[2] = molecular target: GST-TRIM5αhu (glutathione S-transferase fusion with full-length human TRIM5α) (human) (UniProt Q9C035); assay: title of the legend of FIGS. 9A-9B (yeast two-hybrid and GST pull-down from 293T cells)
[3] = molecular target: GST-TRIM5αhu (glutathione S-transferase fusion with full-length human TRIM5α) (human) (UniProt Q9C035); assay: GST pull-down on glutathione-Sepharose from cotransfected 293T cells, Western blot with anti-TRIM5

B1: TRIMStop expressed in fusion with the B42 activation domain (protein, not shown: large carriers)
chain: MASRILVNIKEEVTCPICLELLTEPLSLDCGHSFCQACITANHKKSMPHQGERSCPLCRISYSSENLRPNRHLVNIVERLREVMLSPEEGQKVDHCAHHGEKLVLFCQQDGNVICWLCERSQEHRGHQTFLVEEVAQKYREKLQVALEMMRQKQKDAEKLEADVREEQASWKIQIQNDKTNIMAEFKKRRDILDCEESKELQNLEKEEKNILKRLVQSENDMVLQTQSVRVLISDLEHRLQGSVMELLQGVDGVIKRIEKVTLQNPKTFLNEKRRIFQTPDLKGTLQVFKEPTEVQRYWDAAAWDLVASA
B1 was tested, and the binding [1] was “binds”.

B2: TRIMStop (protein)
chain: B1 chain
In the case of B2, the binding [2] is reported as “binds” and the binding [3] is reported as “binds”.
